This note sets out measurements from patent US8632755B2, “Consumer noticeable improvement in wetness protection” (The Procter & Gamble Company, priority 2005, dated 2014).

The nature of the data set: Odor detection threshold (ODT) of HIA perfume ingredients, determined using a gas chromatograph. The following applies: HIA perfume ingredient of the high impact accord of Example 1.

As for `CCC/C=C/C=O` [Trans-2 Hexenal], the “ODT. (odor detection threshold)” value is listed as “≦50 ppb”.
For `CCCCCCCCCC(C)C=O` (stereo not shown) [Methyl Nonyl Acetaldehyde], the “ODT. (odor detection threshold)” value is “≦50 ppb”.
The entry for `CCOC(=O)C(C)CC` (stereo not shown) [ethyl-2-methyl butyrate] is “≦50 ppb”.
The entry for `CC/C=C\CCO` [Beta Gamma Hexenol] is “≧50 ppb”; for `CCC=CCCC=CC=O` [2-6-nonadienal] it is “≦50 ppb”; for `CCCCCCCCC/C=C/C=O` [Mandarin Aldehyde] it is “≦50 ppb”.
Under `CC1(C)C2CC=C(CCC=O)C1C2` (stereo not shown) [Pino Acetaldehyde] stands “≦50 ppb”.
For `CCCCCCC=CC(=O)OC` [methyl-2-nonenoate], the “ODT. (odor detection threshold)” value is “≦50 ppb”.
As for `CCCCCCCC1CCC(=O)O1` (stereo not shown) [Undecalactone], the “ODT. (odor detection threshold)” value was “≧50 ppb”.
As for `C/C=C\C(=O)C1C(C)=CCCC1(C)C` (stereo not drawn) [Damarose Alpha], the “ODT. (odor detection threshold)” value is “≦50 ppb”.
Under `CC/C=C\CCOC(C)=O` [Cis 3 Hexenyl Acetate] stands “≧50 ppb”.
On to `C=CCOC(=O)CCCCCC` [Allyl Heptanoate], for which the “ODT. (odor detection threshold)” value is listed as “≧50 ppb”.
Under `C=C(C)[C@H]1CC=C(C)CC1` [d-limonene] stands “≧50 ppb”; under `CC1=CCC(C(C)CC2CCCC2=O)CC1` (stereo not shown) [Nectaryl], “≧50 ppb”.
Under `CC(C)=CCCC(C)C=O` (stereo not shown) [Melonal] stands “≦50 ppb”.
Under `CC(C)=CCCC(C)CCCC(C)C=O` (stereo not shown) [Adoxal] stands “≧50 ppb”; under `CCCCCCC(C=O)=Cc1ccccc1` [Hexyl Cinnamic Aldehyde], “≧50 ppb”; under `CC(=O)/C=C/C1=C(C)CCCC1(C)C` [Ionone Beta], “≦50 ppb”.
Turning to `CC(=O)CCc1ccc(O)cc1` [Para Hydroxy Phenyl Butanone], the “ODT. (odor detection threshold)” value is given as “≦50 ppb”.
The entry for `CC(=O)OC1CCCCC1C(C)(C)C` (stereo not shown) [Verdox] is “≧50 ppb”; for `C=CCCC(=O)C1=CCCC(C)(C)C1` [Neobutenone] it is “≦50 ppb”; for `CCCCCCCCCC=O` [Decyl Aldehyde] it is “≦50 ppb”.
